These are yes or no findings as the source states them, for the method shown. Binding seen in cells or lysates may run through a third protein. Some entries that bind do so weakly or less than the wild type. Sequences can lack the tags named with a protein.

Test [1] addresses T1, GFP‐TSN2 (Arabidopsis thaliana) (UniProt Q9FLT0).
T1 sequence: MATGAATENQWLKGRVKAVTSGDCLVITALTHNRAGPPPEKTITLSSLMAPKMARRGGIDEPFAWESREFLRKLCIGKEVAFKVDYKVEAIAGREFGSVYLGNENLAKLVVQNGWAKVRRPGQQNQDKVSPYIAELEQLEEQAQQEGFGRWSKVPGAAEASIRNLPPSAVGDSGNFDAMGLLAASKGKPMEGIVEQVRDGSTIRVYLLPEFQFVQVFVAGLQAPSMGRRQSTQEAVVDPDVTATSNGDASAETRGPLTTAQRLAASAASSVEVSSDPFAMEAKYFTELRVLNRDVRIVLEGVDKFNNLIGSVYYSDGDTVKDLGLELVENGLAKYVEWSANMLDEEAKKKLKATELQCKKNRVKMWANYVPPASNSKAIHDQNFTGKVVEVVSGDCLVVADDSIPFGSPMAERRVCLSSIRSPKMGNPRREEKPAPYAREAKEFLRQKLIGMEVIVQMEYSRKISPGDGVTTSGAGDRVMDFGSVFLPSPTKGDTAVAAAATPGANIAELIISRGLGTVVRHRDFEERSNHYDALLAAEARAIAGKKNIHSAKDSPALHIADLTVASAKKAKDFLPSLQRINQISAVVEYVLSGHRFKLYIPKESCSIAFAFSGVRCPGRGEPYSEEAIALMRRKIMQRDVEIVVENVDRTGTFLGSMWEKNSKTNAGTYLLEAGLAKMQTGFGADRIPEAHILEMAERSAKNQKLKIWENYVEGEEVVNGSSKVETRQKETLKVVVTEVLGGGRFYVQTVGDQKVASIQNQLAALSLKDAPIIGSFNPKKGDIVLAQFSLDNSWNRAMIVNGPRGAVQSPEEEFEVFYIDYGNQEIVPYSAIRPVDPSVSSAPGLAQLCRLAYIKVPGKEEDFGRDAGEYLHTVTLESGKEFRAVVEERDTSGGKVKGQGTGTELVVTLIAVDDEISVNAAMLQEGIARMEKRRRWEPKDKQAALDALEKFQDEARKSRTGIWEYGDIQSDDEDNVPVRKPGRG
The experiment in a line: co-IP; extracts of N. benthamiana leaves agro-infiltrated with GFP-TSN1, GFP-TSN2 or free GFP and Myc-RH12; blots with α-Myc and α-GFP.

The target of test [2] is T2, GFP‐TSN1 (Arabidopsis thaliana) (UniProt Q8VZG7).
T2 sequence: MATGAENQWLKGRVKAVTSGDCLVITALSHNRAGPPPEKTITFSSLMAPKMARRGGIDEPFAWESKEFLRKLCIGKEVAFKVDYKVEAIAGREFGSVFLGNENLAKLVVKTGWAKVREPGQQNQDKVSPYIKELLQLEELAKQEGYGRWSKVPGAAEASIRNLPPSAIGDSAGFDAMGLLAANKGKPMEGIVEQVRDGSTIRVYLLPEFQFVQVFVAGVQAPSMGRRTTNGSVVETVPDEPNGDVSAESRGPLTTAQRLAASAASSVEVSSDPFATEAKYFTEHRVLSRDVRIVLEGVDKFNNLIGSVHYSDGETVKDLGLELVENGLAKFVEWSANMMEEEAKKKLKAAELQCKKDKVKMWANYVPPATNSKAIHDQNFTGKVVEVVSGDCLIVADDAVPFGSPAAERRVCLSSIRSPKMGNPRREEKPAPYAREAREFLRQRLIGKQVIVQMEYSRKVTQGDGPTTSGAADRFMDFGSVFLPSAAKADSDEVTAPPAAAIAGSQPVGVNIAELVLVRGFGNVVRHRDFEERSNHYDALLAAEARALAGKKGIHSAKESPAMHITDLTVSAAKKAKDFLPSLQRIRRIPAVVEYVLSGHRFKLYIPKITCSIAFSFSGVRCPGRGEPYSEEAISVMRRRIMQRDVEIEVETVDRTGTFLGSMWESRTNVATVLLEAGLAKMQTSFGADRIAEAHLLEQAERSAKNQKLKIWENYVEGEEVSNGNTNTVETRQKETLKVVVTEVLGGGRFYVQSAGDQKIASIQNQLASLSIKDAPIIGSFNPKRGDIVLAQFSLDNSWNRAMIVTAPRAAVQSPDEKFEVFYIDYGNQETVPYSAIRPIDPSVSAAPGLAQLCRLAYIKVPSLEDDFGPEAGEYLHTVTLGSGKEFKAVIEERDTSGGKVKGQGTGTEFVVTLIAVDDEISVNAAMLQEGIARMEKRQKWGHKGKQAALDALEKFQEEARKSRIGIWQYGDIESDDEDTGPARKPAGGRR
Described as above.

Test [3] has as its target T3, TSN2 fused to CFP or YFP for FRET (Arabidopsis thaliana) (UniProt Q9FLT0).
T3 sequence: T1 sequence
The experiment in a line: FRET or BRET; acceptor photobleaching FRET with the CFP-YFP pair in N. benthamiana leaves under HS (39°C for 40 min); empty vector as negative control. On the technique in general: BRET reads energy transfer from a luciferase to a nearby fluorophore.

B1: Myc‐RH12 (protein, UniProt Q9M2E0 1-498)
chain: MNTNRGRYPPGVGTGRGAPPNPDYHQSYRQQQPPQDQQYVQRGYSQNPQQMQLQQQHQQQQQQQQWSRRPQLPGNASNANEVVQQTTQPEASSDANGQDWKATLRLPPPDTRYQTADVTATKGNEFEDYFLKRDLLKGIYEKGFEKPSPIQEESIPIALTGSDILARAKNGTGKTGAFCIPVLEKIDPNNNVIQAMILVPTRELALQTSQVCKELSKYLNIQVMVTTGGTSLRDDIMRLHQPVHLLVGTPGRILDLTKKGVCVLKDCAMLVMDEADKLLSAEFQPSLEELIQFLPQNRQFLMFSATFPVTVKAFKDRHLRKPYVINLMDQLTLMGVTQYYAFVEERQKVHCLNTLFSKLQINQSIIFCNSVNRVELLAKKITELGYSCFYIHAKMVQDHRNRVFHEFRNGACRNLVCTDLFTRGIDIQAVNVVINFDFPRTSESYLHRVGRSGRFGHLGLAVNLVTYEDRFKMYQTEQELGTEIKPIPSNIDQAIYCQ
As to B1, the binding result in test [1] and in test [2] was “binds” in each case.

B2: SnRK1α2 fused to CFP or YFP for FRET (protein, UniProt P92958 1-512)
chain: MDHSSNRFGNNGVESILPNYKLGKTLGIGSFGKVKIAEHVVTGHKVAIKILNRRKIKNMEMEEKVRREIKILRLFMHPHIIRQYEVIETTSDIYVVMEYVKSGELFDYIVEKGRLQEDEARNFFQQIISGVEYCHRNMVVHRDLKPENLLLDSRCNIKIADFGLSNVMRDGHFLKTSCGSPNYAAPEVISGKLYAGPEVDVWSCGVILYALLCGTLPFDDENIPNLFKKIKGGIYTLPSHLSSEARDLIPRMLIVDPVKRITIPEIRQHRWFQTHLPRYLAVSPPDTVEQAKKINEEIVQEVVNMGFDRNQVLESLRNRTQNDATVTYYLLLDNRFRVPSGYLESEFQETTDSGSNPMRTPEAGASPVGHWIPAHVDHYGLGARSQVPVDRKWALGLQSHAHPREIMNEVLKALQELNVCWKKIGHYNMKCRWVPGLADGQNTMVNNQLHFRDESSIIEDDCAMTSPTVIKFELQLYKAREEKYLLDIQRVNGPQFLFLDLCAAFLTELRVI
In the case of B2, the binding result in test [3] is given as “binds”.

B3: SnRK1α1 fused to CFP or YFP for FRET (protein, UniProt Q38997 1-512)
chain: MDGSGTGSRSGVESILPNYKLGRTLGIGSFGRVKIAEHALTGHKVAIKILNRRKIKNMEMEEKVRREIKILRLFMHPHIIRLYEVIETPTDIYLVMEYVNSGELFDYIVEKGRLQEDEARNFFQQIISGVEYCHRNMVVHRDLKPENLLLDSKCNVKIADFGLSNIMRDGHFLKTSCGSPNYAAPEVISGKLYAGPEVDVWSCGVILYALLCGTLPFDDENIPNLFKKIKGGIYTLPSHLSPGARDLIPRMLVVDPMKRVTIPEIRQHPWFQAHLPRYLAVPPPDTVQQAKKIDEEILQEVINMGFDRNHLIESLRNRTQNDGTVTYYLILDNRFRASSGYLGAEFQETMEGTPRMHPAESVASPVSHRLPGLMEYQGVGLRSQYPVERKWALGLQSRAHPREIMTEVLKALQDLNVCWKKIGHYNMKCRWVPNSSADGMLSNSMHDNNYFGDESSIIENEAAVKSPNVVKFEIQLYKTRDDKYLLDLQRVQGPQFLFLDLCAAFLAQLRVL
With B3, the binding entry in test [3] was “binds”.

The values above are taken from publication PMC8447601.
